According to publication PMC7049810:
No constants are given. Whether binding was seen depends on the method and setting. In cells and extracts the contact can be indirect. Here binding means that the protein was enriched with, or labelled near, the bait; the list need not be complete.

Sequences of proteins named here, by UniProt entry; tags and fusion partners are left off. Residues count along the entry.
UniProt P06136: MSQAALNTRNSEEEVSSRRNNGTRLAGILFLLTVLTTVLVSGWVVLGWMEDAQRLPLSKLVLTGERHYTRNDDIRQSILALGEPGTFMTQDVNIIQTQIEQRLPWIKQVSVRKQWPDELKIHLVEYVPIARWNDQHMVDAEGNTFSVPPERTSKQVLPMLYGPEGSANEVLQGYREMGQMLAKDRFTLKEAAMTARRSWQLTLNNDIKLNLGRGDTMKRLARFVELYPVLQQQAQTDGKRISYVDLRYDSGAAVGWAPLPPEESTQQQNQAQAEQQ
UniProt P24228, residues 21-477: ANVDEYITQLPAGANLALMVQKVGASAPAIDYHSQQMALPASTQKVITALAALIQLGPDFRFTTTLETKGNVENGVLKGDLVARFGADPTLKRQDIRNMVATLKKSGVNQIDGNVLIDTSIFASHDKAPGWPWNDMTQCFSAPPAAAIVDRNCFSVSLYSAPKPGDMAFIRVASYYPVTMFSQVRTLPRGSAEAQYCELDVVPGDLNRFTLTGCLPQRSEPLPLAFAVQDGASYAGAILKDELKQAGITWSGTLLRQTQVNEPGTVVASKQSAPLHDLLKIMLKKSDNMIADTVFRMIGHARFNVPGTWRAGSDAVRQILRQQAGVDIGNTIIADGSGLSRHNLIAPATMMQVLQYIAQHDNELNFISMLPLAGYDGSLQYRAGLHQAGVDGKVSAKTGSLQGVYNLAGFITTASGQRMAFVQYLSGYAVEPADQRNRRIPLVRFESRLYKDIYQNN

Assays:
[1] = target: T1, NlpI, soluble version lacking its membrane anchor (Escherichia coli) (UniProt P0AFB1); assay: affinity purification with mass spectrometry; NlpI coupled to Sepharose; detergent-solubilized E. coli membrane extract bound at low salt (50 mM NaCl), 6°C, eluted with 1 M NaCl; label-free LC-MS against a Tris-Sepharose control column; only the target purified
T1 sequence (chain, where used as fl-NlpI in MST, NT647 RED-NHS dye on amines): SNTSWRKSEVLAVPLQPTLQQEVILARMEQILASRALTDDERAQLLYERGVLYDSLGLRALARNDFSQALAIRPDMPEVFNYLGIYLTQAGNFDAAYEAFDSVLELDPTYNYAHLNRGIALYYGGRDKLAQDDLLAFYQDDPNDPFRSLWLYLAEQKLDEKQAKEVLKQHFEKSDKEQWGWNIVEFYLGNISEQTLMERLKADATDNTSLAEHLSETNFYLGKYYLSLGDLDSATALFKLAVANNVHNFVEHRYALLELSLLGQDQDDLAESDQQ

[2] = target: T1, NlpI, soluble version lacking its membrane anchor (Escherichia coli); assay: affinity purification with mass spectrometry; NlpI coupled to Sepharose; detergent-solubilized E. coli membrane extract bound at high salt (400 mM NaCl), 6°C, eluted with 2 M NaCl; label-free LC-MS against a Tris-Sepharose control column; only the target purified

binding [1] | binding [2] | Substance
binds | binds | FtsQ, endogenous in E. coli membrane extract (from UniProt P06136 1-276)
binds |  | PBP4, endogenous in E. coli membrane extract (from UniProt P24228 21-477) (enzyme)
